The supplement of paper PMC8256030
Values joined by “and” are separate entries in the source; they are usually repeats but may differ in a detail not shown here. Equal entries are not always repeated. This is one part of the list. Repeats in this data set agree poorly, so a single value says little.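 HEK293T cells were given each compound shortly before transfection with a reporter in which red mCherry is followed by the SARS-CoV-2 frameshift element and then GFP in the −1 frame, so GFP appears only after frameshifting.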

Tests used:
[1] = tested on: SARS-CoV-2 -1 PRF reporter mCherry-FSE-GFP(-1); test: mCherry (red) intensity as percent of control; higher = higher upstream reporter expression; conditions: 10 µM; 24 h; HEK293T
[2] = tested on: SARS-CoV-2 -1 PRF reporter mCherry-FSE-GFP(-1); test: percent effect, decrease of GFP/mCherry ratio (-1 PRF reporter) relative to controls; higher = stronger frameshift inhibition; conditions: 10 µM; 24 h; HEK293T

CCN(CCCCOC(=O)c1ccc(OC)c(OC)c1)C(C)Cc1ccc(OC)cc1 (stereo unspecified) [mebeverine]
mCherry [1]: 114% | percent effect [2]: -10.8%

Cc1nnc(SCC2=C(C(=O)O)N3C(=O)[C@@H](NC(=O)Cn4cnnn4)[C@H]3SC2)s1 [cefazolin]
mCherry [1]: 77.3% | percent effect [2]: -11.8%

CC(COc1ccccc1Cc1ccccc1)N1CCCCC1 (stereo unspecified) [benproperine]
mCherry [1]: 105% | percent effect [2]: -0.315%

COCc1c(C(C)C)nc(C(C)C)c(/C=C/[C@@H](O)C[C@@H](O)CC(=O)O)c1-c1ccc(F)cc1 [Cerivastatin]
mCherry [1]: 131% | percent effect [2]: 2.33%

CCOC(=O)OC(C)OC(=O)[C@@H]1N2C(=O)[C@@H](NC(=O)[C@H](N)c3ccccc3)[C@H]2SC1(C)C (stereo partly specified) [bacampicillin]
mCherry [1]: 101% | percent effect [2]: 1.14%

C[C@H]1[C@H]2CC[C@H]3[C@@H]4CC=C5C[C@@H](N(C)C)CC[C@]5(C)[C@H]4CC[C@]23CN1C [conessine]
mCherry [1]: 68.3% | percent effect [2]: -6.46%

CN(C)CCOC(C)(c1ccccc1)c1ccc(Br)cc1 (stereo unspecified) [embramine]
mCherry [1]: 62.7% | percent effect [2]: -1.32%

C[C@H]1O[C@H](O[C@H]2[C@H](O)[C@@H](O)[C@@H](O[C@@H]([C@H](O)[C@@H](O)C=O)[C@H](O)CO)O[C@@H]2CO)[C@H](O)[C@@H](O)[C@@H]1N[C@H]1C=C(CO)[C@@H](O)[C@H](O)[C@H]1O [acarbose]
mCherry [1]: 88.6% and 105% | percent effect [2]: -0.991% and -1.42%

O=C(O)/C=C/c1ccc(Cn2ccnc2)cc1 [Ozagrel]
mCherry [1]: 72.7% | percent effect [2]: -3.09%

COc1ccc2c(c1)N(C[C@H](C)CN(C)C)c1ccccc1S2 [Levoprome]
mCherry [1]: 135% | percent effect [2]: -2.63%

CCc1cc(C(N)=S)ccn1 [ethionamide]
mCherry [1]: 124% | percent effect [2]: 0.206%

c1ccc2c(c1)cc1n2CCCNC1 [azepindole]
mCherry [1]: 96.5% | percent effect [2]: -1.15%

O=C(Oc1ccc2c(c1)CCCN2C(=O)C(Cl)Cl)c1ccco1 [quinfamide]
mCherry [1]: 60.2% | percent effect [2]: -0.455%

COC(=O)Nc1nc2cc([S+]([O-])c3ccccc3)ccc2[nH]1 (stereo unspecified) [oxfendazole]
mCherry [1]: 105% | percent effect [2]: -1.37%

O=C(NCCN1CCN(c2ncccn2)CC1)C12CC3CC(CC(C3)C1)C2 [adatanserin]
mCherry [1]: 110% | percent effect [2]: -10.4%

C[C@H]1O[C@@H](O[C@H]2[C@@H](O)C[C@H](O[C@H]3[C@@H](O)C[C@H](O[C@H]4CC[C@@]5(C)[C@H](CC[C@@H]6[C@@H]5C[C@@H](O)[C@]5(C)[C@@H](C7=CC(=O)OC7)CC[C@]65O)C4)O[C@@H]3C)O[C@@H]2C)C[C@H](O)[C@@H]1O [digoxin]
mCherry [1]: 3350% | percent effect [2]: -20.2%

CC1(C)[C@@H](OC(=O)CCC(=O)O)CC[C@]2(C)[C@H]3C(=O)C=C4[C@@H]5C[C@@](C)(C(=O)O)CC[C@]5(C)CC[C@@]4(C)[C@]3(C)CC[C@@H]12 [carbenoxolone]
mCherry [1]: 116% | percent effect [2]: -2.24%

COC(=O)c1ccc2c(C(=Nc3ccc(N(C)C(=O)CN4CCN(C)CC4)cc3)c3ccccc3)c(O)[nH]c2c1 [Nintedanib]
mCherry [1]: 106% | percent effect [2]: -1.81%

CCCCCCOc1ccccc1C(N)=O [exalamide]
mCherry [1]: 115% | percent effect [2]: 2.53%

CC[C@]1(O)C[C@@H]2CN(CCc3c([nH]c4ccccc34)[C@@](C(=O)OC)(c3cc4c(cc3OC)N(C)[C@H]3[C@@](O)(C(=O)OC)[C@H](OC(C)=O)[C@]5(CC)C=CCN6CC[C@]43[C@@H]65)C2)C1 [vinblastine]
mCherry [1]: 74% | percent effect [2]: -0.434%

CC(C)NNC(=O)COc1ccc(Cl)cc1 [iproclozide]
mCherry [1]: 86.6% | percent effect [2]: -18.8%

O=S1(=O)c2cccc3cccc(c23)N1CCCN1CCN(c2ccc(F)cc2)CC1 [fananserin]
mCherry [1]: 98.7% | percent effect [2]: -2.79%

CC(=O)O[C@]1(C(C)=O)CC[C@H]2[C@@H]3C=C(Cl)C4=CC(=O)[C@@H]5C[C@@H]5[C@]4(C)[C@H]3CC[C@@]21C [Cyproterone Acetate]
mCherry [1]: 81.8% | percent effect [2]: -4.4%
